Construct, isoform or probe ends are uncertain for at least one entry. At least one verdict was read from the data and is not stated in words by the source. Where a protein sequence is shown, tags need not be part of it.

This data set has as its target T1, CaSWC4-6xHis (Capsicum annuum) (UniProt A0A2G3AKV1).
T1 sequence (looked up, limits assumed): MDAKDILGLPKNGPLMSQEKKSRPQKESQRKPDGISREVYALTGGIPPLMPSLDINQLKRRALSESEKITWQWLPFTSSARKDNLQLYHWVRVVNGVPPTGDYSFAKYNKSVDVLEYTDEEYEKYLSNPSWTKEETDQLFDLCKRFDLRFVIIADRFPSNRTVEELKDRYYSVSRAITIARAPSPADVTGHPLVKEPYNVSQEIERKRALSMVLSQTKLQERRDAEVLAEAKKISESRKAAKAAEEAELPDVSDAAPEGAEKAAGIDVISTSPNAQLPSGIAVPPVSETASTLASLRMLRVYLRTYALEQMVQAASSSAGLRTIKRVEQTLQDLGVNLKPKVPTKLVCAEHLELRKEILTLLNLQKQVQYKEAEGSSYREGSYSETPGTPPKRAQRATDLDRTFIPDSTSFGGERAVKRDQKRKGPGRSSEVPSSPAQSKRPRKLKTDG
In words: EMSA. Conditions: EMSA: 5x binding buffer listed as 1 M Tris-HCl pH 7.5, 5 M NaCl, 1 M KCl, 1 M MgCl2, 0.5 M EDTA pH 8.0, 10 mg/ml BSA (apparently stock concentrations); recombinant protein; protein details: 6xHis (C-terminal as named); label: 5'-Cy5 on strand 1.
In the case of “ATATATACTAAAGGTATAATATAAATCTTTTTATTTTTTT (double strand) [PNPR1-AT-EMSA (CaNPR1 promoter AT-rich)]”, the binding result was “binds”.

For “TATAAACTAAATAAAAGAGCCCAACCCAAAAAACTAGTTT (double strand) [PHSP24-AT-EMSA (CaHSP24 promoter AT-rich)]”, the binding result was “binds”.

On to “TTTCCCAAAAATCGTAATGGAGTCCGACCATAACGAATT (double strand) [PDEF1-AT-EMSA (CaDEF1 promoter AT-rich)]”, for which the binding result is “binds”.
